Data as given in PubChem BioAssay AID686938 (Drosophila RNAi Screening Center, 2013).

- Purpose: 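Knock-downs reducing store-operated calcium influx in Drosophila cells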 (primary screen)
- Cells: Drosophila S2R+ cells
- Knock-down reagent: long dsRNA against Drosophila genes, about 0.25 µg dsRNA per well, roughly 10,000 cells
- Timing: 5 days of knock-down before the calcium assay
- Treatment: thapsigargin (SERCA pump blocker) to empty calcium stores; entry signal taken 4 min after adding it
- Read-out: 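Duplicate raw fluo-4 intensities per well from a plate reader, at rest and four minutes after thapsigargin emptied calcium stores; entry-to-rest ratio filled for only some wells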
- Direction: calcium entry signal: higher = stronger calcium signal after store depletion; entry to resting ratio: higher = more calcium entry relative to resting level; resting calcium signal: higher = higher resting calcium signal
- Units: calcium entry signal in fluorescence units; resting calcium signal in fluorescence units
- Hit rule: 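Called when the plate z-score of the entry-to-rest ratio, mean of duplicates, falls below −3; wells with low overall dye signal (Fmax z below −2) or more than five off-targets excluded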
- Meaning of the calls: active = strongly reduced calcium entry; inactive = no strong reduction
The screen tested about 23,000 reagents; shown is an unselected part of those that have a named target and a result. Of all reagents, 75 (0.33%) are marked active. 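Raw plate signals without normalisation; calls rest on plate z-scores that were not deposited; ratio present for only 364 wells.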 The record does not give: the dose of the treatment.

gene knocked down	DRSC id	calcium entry signal, replicate 1	calcium entry signal, replicate 2	entry to resting ratio	resting calcium signal, replicate 1	resting calcium signal, replicate 2	Outcome
Prp16	DRSC19538	1.66e7	2.07e7		8.24e6	1.01e7	inactive
Prp16	DRSC19542	2.47e7	2.41e7		1.38e7	1.29e7	inactive
Tg	DRSC03047	2.59e7	3.72e7		1.19e7	1.63e7	inactive
CG16753	DRSC08489	3.24e7	2.34e7		2.35e7	1.03e7	inactive
CG15450	DRSC20522	3.06e7	4.67e7		1.63e7	2.15e7	inactive
CG11854	DRSC14409	2.82e7	6.08e7		1.61e7	2.51e7	inactive
CG18258	DRSC19798	4.61e7	3.34e7		2.34e7	1.60e7	inactive
CG1674	DRSC17107	4.11e7	3.54e7		1.88e7	1.40e7	inactive
CG1674	DRSC17142	3.41e7	4.93e7	2.2	1.54e7	1.95e7	inactive
spi	DRSC03618	4.06e7	5.21e7		1.89e7	2.15e7	inactive
enc	DRSC08716	3.65e7	4.17e7		1.90e7	1.93e7	inactive
Vha16-1	DRSC05020	5.28e7	4.47e7		3.27e7	2.81e7	inactive
CG10912	DRSC06009	3.75e7	3.52e7		1.73e7	1.74e7	inactive

Continued (4 carried over from the part before).
gene knocked down	DRSC id	calcium entry signal, replicate 1	calcium entry signal, replicate 2	entry to resting ratio	resting calcium signal, replicate 1	resting calcium signal, replicate 2	Outcome
spi	DRSC03618	4.06e7	5.21e7		1.89e7	2.15e7	inactive
enc	DRSC08716	3.65e7	4.17e7		1.90e7	1.93e7	inactive
Vha16-1	DRSC05020	5.28e7	4.47e7		3.27e7	2.81e7	inactive
CG10912	DRSC06009	3.75e7	3.52e7		1.73e7	1.74e7	inactive
CG4375	DRSC00653	3.00e7	2.85e7		1.47e7	1.28e7	inactive
CG3942	DRSC15525	3.52e7	2.67e7		1.73e7	1.38e7	inactive
U2af50	DRSC20297	2.33e7	2.18e7		1.43e7	1.44e7	inactive
U2af50	DRSC22867	1.38e7	2.19e7		8.57e6	1.19e7	inactive
Naprt	DRSC00630	4.83e7			2.85e7		inactive
Fkbp39	DRSC16667	3.58e7	4.00e7		1.50e7	1.78e7	inactive
Arp2	DRSC19332	2.42e7	2.39e7		1.41e7	1.13e7	inactive
CG13676	DRSC10035	2.95e7	3.57e7		1.72e7	1.74e7	inactive
CG3306	DRSC10357	6.01e7	4.59e7		3.89e7	1.86e7	inactive
CG8229	DRSC07114	5.72e7	4.37e7		2.46e7	1.93e7	inactive
ppk23	DRSC20110	2.12e7	2.78e7		1.26e7	1.41e7	inactive
croc	DRSC11884	2.54e7	3.24e7		1.19e7	1.49e7	inactive
Nil	DRSC15953	2.79e7	5.30e7		1.59e7	2.31e7	inactive
Nil	DRSC23322	3.13e7	4.19e7		1.57e7	1.94e7	inactive
Hug	DRSC16969	3.92e7	3.87e7		2.02e7	2.01e7	inactive
CG5608	DRSC15841	4.35e7	5.36e7		1.91e7	2.39e7	inactive
ftz-f1	DRSC11347	2.56e7	5.07e7		1.45e7	1.91e7	inactive
CG8668	DRSC03101	4.51e7			2.21e7		inactive
wech	DRSC06606	4.28e7			2.23e7		inactive
Cp7Fa	DRSC18032	3.31e7	4.71e7		1.71e7	2.10e7	inactive
Cp7Fa	DRSC18033	3.78e7	4.62e7		1.87e7	2.09e7	inactive
rdhB	DRSC16190	2.91e7	2.97e7		1.33e7	1.30e7	inactive
CG14566	DRSC11727	3.32e7	5.37e7		1.55e7	2.46e7	inactive
CG11298	DRSC04100	2.35e7	3.44e7		1.46e7	1.43e7	inactive
CNPYb	DRSC09845	3.66e7	5.20e7		1.92e7	3.53e7	inactive
CG12147	DRSC12192	5.35e7	3.42e7		2.46e7	1.65e7	inactive
trsn	DRSC06078	3.75e7	3.59e7		1.71e7	1.65e7	inactive
